Data as given in PubChem BioAssay AID504834 (National Center for Advancing Translational Sciences (NCATS), 2011).
The campaign covered roughly 320,000 compounds. About 22,000 (6.9%) were called active. This list was built around the results that the source calls inconclusive (neither active nor inactive); the mix of calls is not that of the screen. Calls come from the whole dose curve; as a rule, active = well fitted inhibition curve with a large enough effect; inconclusive = small, poorly fitted or top-dose-only effect, or another doubt; inactive = no such curve, though single readings can be large or run the other way. Where the call is inconclusive, the potency comes from a doubtful curve fit.

Assay: Primary qHTS for delayed death inhibitors of the malarial parasite plastid, 96 hour incubation
Conditions: P. falciparum luciferase reporter growth; series mostly up to 28.7 µM
In short: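 Two parasite generations (96 h, 37 C, 5% CO2) of compound exposure in infected erythrocytes (0.05% parasitemia, 2% hematocrit). Luciferase-reporter P. falciparum; decreased luminescence indicates inhibited growth, aimed at apicoplast-acting delayed death.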
Potency is the fitted concentration of half-maximal effect.

Row | SMILES | Potency
1 | O=C(CN1CCN(c2ncc(C(F)(F)F)cc2Cl)CC1)NC(=O)NCc1ccccc1 | inactive
2 | COc1ccccc1CC(=O)NC1CC1 | inconclusive: 18.5 µM [inhibitor, single point]
3 | COC(=O)C1=C(c2cccc(OCc3ccccc3)c2)C[C@@H]2CC[C@H]1N2C(=O)NCc1ccc(Br)cc1 | inconclusive: 6.57 µM [inhibitor, partial curve, poor fit]
4 | FC(F)Oc1ccc(NC(=S)NNc2ccnc3cc(Cl)ccc23)cc1 | inconclusive: 2.62 µM [inhibitor, single point]
5 | CC(C)Cn1nc(C(=O)Nc2nnc(C3CC3)s2)c2ccccc2c1=O | inconclusive: 11.7 µM [inhibitor, single point]
6 | O=C(NC1=NCCS1)C1CCN(S(=O)(=O)c2ccc(Cl)cc2)CC1 | inconclusive: 10.4 µM [inhibitor, partial curve, poor fit]
7 | COc1ccc(NC(=O)c2c(C)noc2-c2snnc2C)cc1 | active: 2.94 µM
8 | O=C(CCc1ccccc1)NCCc1cccs1 | inconclusive: 7.38 µM [inhibitor, partial curve, poor fit]
9 | N=c1n(CC(=O)c2ccc(Br)s2)c2ccccc2n1Cc1ccccc1 | inconclusive: 10.4 µM [inhibitor, single point]
10 | COc1ccc(CCN2CC(C(=O)N(C)CC(=O)Nc3ccc(Cl)c(C(F)(F)F)c3)CC2=O)cc1OC (stereo not given) | inconclusive: 18.5 µM [inhibitor, single point]
11 | CC(C)Nc1nc(Oc2ccc(Cl)cc2Cl)cc(C(F)(F)F)n1 | inactive
12 | CCc1ccc(CNC(=O)c2ccc(NC(=O)C3=CSCCO3)cc2)cc1 | inconclusive: 13.1 µM [inhibitor, partial curve, poor fit]
13 | COc1ccc(OC)c(C2C(C(=O)c3ccco3)=C(O)C(=O)N2CCN2CCOCC2)c1 (stereo not given) | inconclusive: 10.4 µM [inhibitor, single point]
14 | O=C(Cc1c[nH]c2ccccc12)NCc1ccc(Cl)cc1 | inactive
15 | COc1ccc(NC(=O)c2sc3nc(C)nc(N4CCOCC4)c3c2C)c(OC)c1 | inconclusive: 4.15 µM [inhibitor, full curve, poor fit]
16 | COc1ccc(C#Cc2c(C=O)n(C)c3ccccc23)cc1 | inconclusive: 11.7 µM [inhibitor, single point]
17 | Cc1cc(OCC(O)CN2CCOCC2)cc(C)c1Cl (stereo not given) | inconclusive: 13.1 µM [inhibitor, single point]
18 | COc1ccc(C2=CC(c3c(C)nn(-c4ccccc4)c3Cl)n3nnnc3N2)cc1OC (stereo not given) | inconclusive: 7.38 µM [inhibitor, partial curve, poor fit]
19 | CCOc1ccc(N(CC(=O)NC2CCCCCC2)S(=O)(=O)c2c(C)[nH]c(=O)[nH]c2=O)cc1 | inconclusive: 18.5 µM [inhibitor, single point]
20 | CCOc1ncccc1C(=O)Nc1ccc(Cl)cc1 | inactive
21 | CN1CCN(S(=O)(=O)c2ccccc2)CC1 | inconclusive: 18.5 µM [inhibitor, single point]
22 | CCc1ccc(CN2CCN(C(=O)Cc3ccccc3)CC2)cc1 | inactive
23 | CC(C)(C)c1csc(NC(=O)CCc2ccccc2)n1 | inconclusive: 0.522 µM [inhibitor, full curve, poor fit]
24 | CCOC(=O)CSc1ccc(S(=O)(=O)N(CC)CC)cc1[N+](=O)[O-] | inconclusive: 2.62 µM [inhibitor, full curve, poor fit]

Excerpt: compounds 19 to 22
Row | SMILES | Potency
19 | CCOc1ccc(N(CC(=O)NC2CCCCCC2)S(=O)(=O)c2c(C)[nH]c(=O)[nH]c2=O)cc1 | inconclusive: 18.5 µM [inhibitor, single point]
20 | CCOc1ncccc1C(=O)Nc1ccc(Cl)cc1 | inactive
21 | CN1CCN(S(=O)(=O)c2ccccc2)CC1 | inconclusive: 18.5 µM [inhibitor, single point]
22 | CCc1ccc(CN2CCN(C(=O)Cc3ccccc3)CC2)cc1 | inactive

Remaining list, next part

Row | SMILES | Potency
25 | O=C(NCc1ccncc1)/C(=N/O)c1ccccc1 | active: 10.4 µM
26 | CC/C(C)=N/Nc1nc2c(c(=O)[nH]c(=O)n2C)n1CCc1ccccc1 | inconclusive: 2.08 µM [inhibitor, single point]
27 | O=C(Nc1ccc(F)c(F)c1)c1cc(S(=O)(=O)N2CCN(c3ccccn3)CC2)ccc1F | inconclusive: 10.4 µM [inhibitor, single point]
28 | Cc1ccc2nc(NC(=O)CCCc3nc4ccccc4s3)sc2c1 | inactive
29 | CCOC(=O)C(NCc1ccco1)(NC(=O)c1ccccc1)C(F)(F)F (stereo not given) | inactive
30 | CCOc1cccc(C(=O)Nc2ccccc2C(=O)N2CCOCC2)c1 | inactive
31 | CC1=CC(C)C2(COC(c3ccc[n+](C)c3)OC2)C(C)C1 (stereo not given) | active: 10.4 µM
32 | [N-]=[N+]=NC1CC(CO)OC1n1ccc(=O)[nH]c1=O (stereo not given) | inactive
33 | CC(=O)c1ccc(NC(=O)CCNS(=O)(=O)c2cccc3nonc23)cc1 | inactive
34 | Cc1cccc(C)c1NC(=O)CSc1nnc(C)n1CC1CCCO1 (stereo not given) | inconclusive: 18.5 µM [inhibitor, single point]
35 | CN(CCc1ccccc1)Cc1c[nH]c2ccccc12 | inconclusive: 18.5 µM [inhibitor, single point]
36 | O=C1O[C@H](CN2CCOCC2)CN1/N=C\c1ccc([N+](=O)[O-])o1 | inconclusive: 8.09 µM [inhibitor, single point]
37 | COc1ccc(/C=C2\SC(=S)N(CCC(=O)NCCCn3ccnc3)C2=O)cc1 | inconclusive: 13.1 µM [inhibitor, single point]
38 | COc1cc([C@@H]2CC=C(C(=O)O)[C@H](c3ccc(F)cc3)N2S(=O)(=O)c2ccc(C)cc2)cc(OC)c1OC | active: 1.85 µM
39 | Oc1cc(O)c2c(c1)OC(c1ccc(O)c(O)c1)C(O)C2 (stereo not given) | inconclusive: 15.1 µM [inhibitor, single point]
40 | CCOC(=O)c1ccc(NC(=O)Nc2ccc(F)cc2)cc1 | active: 13.1 µM
41 | CCNC(=S)N/N=C/c1cccs1 | active: 4.65 µM
42 | COc1ccc(N2CCn3c2nc2c3c(=O)n(CCc3ccccc3)c(=O)n2C)cc1 | inconclusive: 8.28 µM [inhibitor, partial curve, poor fit]
43 | CCOc1cc(CNc2ccc(N3CCOCC3)cc2)cc(Br)c1OCC | inconclusive: 10.4 µM [inhibitor, single point]
44 | Cc1ccc(-n2[nH]c(C)c(C=NCc3ccncc3)c2=O)cc1 | inactive
45 | CCOC(=O)c1oc2ccccc2c1CN1CCN(C(=O)c2ccccc2)CC1 | inconclusive: 18.5 µM [inhibitor, single point]
46 | O=c1c(-c2ccccc2)c1-c1ccccc1 | active: 5.36 µM
47 | Cc1ccc(-c2nnc(N3CCCCCC3)c3ccccc23)cc1 | inconclusive: 9.28 µM [inhibitor, single point]
48 | O=C(COc1ccc2ccccc2c1)Nc1ccc(S(=O)(=O)N2CCCCCC2)cc1 | inconclusive: 20.8 µM [inhibitor, partial curve, poor fit]

Row | SMILES | Potency
49 | O=P(/C(=N/O)N1CCCCC1)(N1CCOCC1)N1CCOCC1 | inactive
50 | N#Cc1cccc(NC(=O)CSc2n[nH]c(=O)[nH]c2=O)c1 | inconclusive: 18.5 µM [inhibitor, single point]
51 | O=C1c2cc(Cl)ccc2OC2(CCNCC2)C12CC(c1ccccc1)=NO2 (stereo not given) | inconclusive: 18.5 µM [inhibitor, single point]
52 | Cc1ccc(NC(=O)CN2CCCCC2)c2c1CC(C)(C)O2 | inconclusive: 0.104 µM [inhibitor, full curve, poor fit]
53 | Cc1cc2c(cc1C)CN(c1ccccc1)C2 | inconclusive: 18.5 µM [inhibitor, single point]
54 | O=C(Cc1ccccc1)N1CCN(Cc2ccc(F)cc2)CC1 | inactive
55 | CCOc1ccc(NC(=O)[C@@H](NC(=O)c2ccco2)C(C)C)cc1 | inconclusive: 5.86 µM [inhibitor, partial curve, poor fit]
56 | O=C(CNc1cc(S(=O)(=O)N2CCCC2)ccc1OCC(F)(F)F)Nc1cc(Cl)cc(Cl)c1 | inactive
57 | COc1ccc(NC(=O)CC2CCCC2)cc1OC | inactive
58 | Cc1ccc(Oc2ccc(N)cc2)cc1 | inconclusive: 3.7 µM [inhibitor, single point]
59 | COc1ccc(/C=N/Nc2nc(=O)[nH]nc2C)cc1OC | inconclusive: 0.185 µM [inhibitor, full curve]
60 | CC(C)(C)NS(=O)(=O)c1ccc(NC(=O)C2CCCO2)cc1 (stereo not given) | inconclusive: 18.5 µM [inhibitor, single point]
61 | COc1cccc(/C=N/NC(=O)CCNc2n[nH]c(=O)[nH]c2=O)c1OC | inconclusive: 8.28 µM [inhibitor, partial curve, poor fit]
62 | COc1ccc(CCN=Cc2ccc(O)cc2)cc1OC | inconclusive: 23.3 µM [inhibitor, single point]
63 | CC(C)CNC(=O)C(=O)Nc1cc2c3c(c1)CCC(=O)N3CCC2 | inconclusive: 18.5 µM [inhibitor, single point]
64 | O=C(O)c1cc(NC(=O)c2ccc(Cl)c([N+](=O)[O-])c2)cc(C(=O)O)c1 | inactive
65 | CC(=O)c1ccc(NC(=O)c2sc3nc4n(c(=O)c3c2C)CCCCC4)cc1 | inconclusive: 9.28 µM [inhibitor, partial curve, poor fit]
66 | COC(=O)c1ccccc1S(=O)(=O)N1CCC(C(=O)OCC(=O)NC2CCCCC2C)CC1 (stereo not given) | inactive
67 | Cc1cc(=O)oc2cc(NC(=O)CC3(CC(=O)O)CCCC3)ccc12 | inconclusive: 7.38 µM [inhibitor, partial curve, poor fit]
68 | CCC(=O)OCC(=O)c1c(N)n(Cc2ccccc2)c(=O)n(C)c1=O | inactive
69 | CCCc1nc2oc(C(=O)OCC)c(N)c2c2c1COC(C)(C)C2 | inconclusive: 2.94 µM [inhibitor, partial curve, poor fit]
70 | CCCCC(=O)NCc1ccc(F)cc1 | inconclusive: 16.5 µM [inhibitor, partial curve, poor fit]

In the list so far, these have a tert-butyl group:
Row | SMILES | Potency
23 | CC(C)(C)c1csc(NC(=O)CCc2ccccc2)n1 | inconclusive: 0.522 µM [inhibitor, full curve, poor fit]
60 | CC(C)(C)NS(=O)(=O)c1ccc(NC(=O)C2CCCO2)cc1 (stereo not given) | inconclusive: 18.5 µM [inhibitor, single point]
